Consider two substances from paper PMC11039992.

The chains behind the UniProt entries cited, without tags or fusion partners.
UniProt P38432: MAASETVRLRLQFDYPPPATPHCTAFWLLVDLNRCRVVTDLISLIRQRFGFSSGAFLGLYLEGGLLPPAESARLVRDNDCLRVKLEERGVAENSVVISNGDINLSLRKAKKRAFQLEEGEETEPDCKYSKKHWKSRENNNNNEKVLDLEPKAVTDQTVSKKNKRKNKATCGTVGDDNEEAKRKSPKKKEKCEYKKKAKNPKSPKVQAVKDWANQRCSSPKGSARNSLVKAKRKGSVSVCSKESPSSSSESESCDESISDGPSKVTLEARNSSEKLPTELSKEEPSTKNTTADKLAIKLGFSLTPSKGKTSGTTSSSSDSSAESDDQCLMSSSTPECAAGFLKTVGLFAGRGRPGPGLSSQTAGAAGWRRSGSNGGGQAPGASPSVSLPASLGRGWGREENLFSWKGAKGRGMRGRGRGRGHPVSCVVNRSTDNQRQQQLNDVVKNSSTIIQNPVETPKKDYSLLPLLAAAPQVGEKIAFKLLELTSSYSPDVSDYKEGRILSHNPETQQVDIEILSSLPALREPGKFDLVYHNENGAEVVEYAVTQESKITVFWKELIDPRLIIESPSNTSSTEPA
UniProt Q8TBF4: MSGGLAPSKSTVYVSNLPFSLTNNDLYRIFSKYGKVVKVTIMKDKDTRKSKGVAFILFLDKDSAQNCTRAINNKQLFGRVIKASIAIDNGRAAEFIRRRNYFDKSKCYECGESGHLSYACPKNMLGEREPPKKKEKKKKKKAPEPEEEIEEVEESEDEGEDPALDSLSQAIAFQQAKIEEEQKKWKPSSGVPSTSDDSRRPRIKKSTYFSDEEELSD

Substitutions are numbered along the chain they refer to. Results are given in words; binding and its absence hold for the method and conditions named. Binding seen in cells or lysates may run through a third protein. A yes stands for co-enrichment or nearness to the bait. Other partners may have been found. For some assays here: A no says only that the protein was not detected with the bait.

Holding throughout (assay): proximity labelling; BioID: N-terminally MAC-tagged bait in Flp-In T-REx 293 cells, induced with 2 μg/ml tetracycline and 50 μM biotin for 24 h; three independent replicates; mass spectrometry
The target of one assay is T1, MAC-RBM41-WT (human) (UniProt Q96IZ5).
T1 sequence: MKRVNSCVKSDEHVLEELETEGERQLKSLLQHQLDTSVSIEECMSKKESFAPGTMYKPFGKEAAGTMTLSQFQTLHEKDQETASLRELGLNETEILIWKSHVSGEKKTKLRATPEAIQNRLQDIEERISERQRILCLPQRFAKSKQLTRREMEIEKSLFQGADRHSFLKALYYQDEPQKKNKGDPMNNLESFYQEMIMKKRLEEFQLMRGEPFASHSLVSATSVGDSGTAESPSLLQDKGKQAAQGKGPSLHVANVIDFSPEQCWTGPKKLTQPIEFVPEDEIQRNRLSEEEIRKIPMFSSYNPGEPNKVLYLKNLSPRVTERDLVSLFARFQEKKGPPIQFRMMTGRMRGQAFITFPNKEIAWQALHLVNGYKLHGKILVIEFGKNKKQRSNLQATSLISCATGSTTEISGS

In the next assay the target is T2, MAC-U11/U12-65K (human) (UniProt Q96LT9).
T2 sequence: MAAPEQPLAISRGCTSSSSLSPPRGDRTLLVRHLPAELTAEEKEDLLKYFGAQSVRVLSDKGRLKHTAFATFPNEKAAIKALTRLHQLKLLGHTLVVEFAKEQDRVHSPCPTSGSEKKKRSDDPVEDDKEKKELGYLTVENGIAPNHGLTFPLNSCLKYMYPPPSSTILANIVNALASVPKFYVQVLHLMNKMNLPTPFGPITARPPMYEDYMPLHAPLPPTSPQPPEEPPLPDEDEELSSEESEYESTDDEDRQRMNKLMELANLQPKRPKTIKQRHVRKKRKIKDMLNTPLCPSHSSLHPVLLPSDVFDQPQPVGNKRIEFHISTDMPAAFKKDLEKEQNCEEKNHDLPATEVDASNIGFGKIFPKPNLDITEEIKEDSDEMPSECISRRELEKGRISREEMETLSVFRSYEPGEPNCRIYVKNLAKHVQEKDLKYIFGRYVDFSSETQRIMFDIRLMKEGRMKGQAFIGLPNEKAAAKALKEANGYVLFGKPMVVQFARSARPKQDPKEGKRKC

In assay [1] the target is T3, MAC-RBM41-(259–413) (human) (UniProt Q96IZ5).
T3 sequence: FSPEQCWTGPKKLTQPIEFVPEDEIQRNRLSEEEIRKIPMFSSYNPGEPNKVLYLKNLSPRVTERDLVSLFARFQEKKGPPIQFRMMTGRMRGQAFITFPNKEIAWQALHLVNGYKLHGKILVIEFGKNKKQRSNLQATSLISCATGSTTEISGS

For assay [2], the target named is T4, MAC-RBM41-(1–258) (human) (UniProt Q96IZ5).
T4 sequence: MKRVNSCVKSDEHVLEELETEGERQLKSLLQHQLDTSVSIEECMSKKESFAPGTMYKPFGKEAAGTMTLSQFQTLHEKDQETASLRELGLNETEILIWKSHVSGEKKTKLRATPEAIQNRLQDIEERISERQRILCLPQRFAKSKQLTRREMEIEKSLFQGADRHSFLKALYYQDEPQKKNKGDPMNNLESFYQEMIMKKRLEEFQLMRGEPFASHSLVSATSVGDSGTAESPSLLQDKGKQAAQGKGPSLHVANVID

Assay [3] concerns the target T5, MAC-RBM41-Y312A + F354A (human) (UniProt Q96IZ5).
T5 sequence: T1 sequence with Y312A, F354A

For the next assay, the target named is T6, MAC-RBM41-Y312A (human) (UniProt Q96IZ5).
T6 sequence: T1 sequence with Y312A

For another assay, the target named is T7, MAC-RBM41-Q352A (human) (UniProt Q96IZ5).
T7 sequence: T1 sequence with Q352A

A further assay has as its target T8, MAC-RBM41-F354A (human) (UniProt Q96IZ5).
T8 sequence: T1 sequence with F354A

On to coilin (from UniProt P38432 1-576), for which the binding entry (in the assay with MAC-RBM41-WT (human); with MAC-U11/U12-65K (human); in assay [1]) was “binds” throughout.
“U11/U12-31K (ZCRB1) (from UniProt Q8TBF4 1-217)”: the binding entry with MAC-RBM41-WT (human) is “binds”; in assay [2], “no binding”; in assay [3] it was “no binding”; with MAC-RBM41-Y312A (human), “no binding”; with MAC-U11/U12-65K (human), “binds”; in assay [1], “binds”. The binding entry with MAC-RBM41-Q352A (human) is reported as “binds”; with MAC-RBM41-F354A (human) it was “no binding”.
